# The list shows a part of the results. Further columns of the screen follow, without active or inactive calls. Most of these compounds were active or inconclusive in the main read-out, so they are no random draw. The note in brackets gives the kind of curve behind each potency; many fits are weak.
# Experiment: qHTS Assay for Lipid Storage Modulators in Drosophila S3 Cells;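 on cell number change: cells counted by Cell Tracker Red CMTPX staining in the red channel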
# Conditions: BODIPY lipid droplet fluorescence, 18-24 h; for cell number change: measured here: cell count max response, cells fed with added oleic acid
# Procedure, shortened: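 Laser-scanning cytometry quantifies lipid droplet accumulation (500–530 nm total intensity; droplet/cell object ratio) in oleic acid-fed (400 uM added) Drosophila S3 cells treated with a concentration series. 20 uM Triacsin C defined 100% inhibition.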
# [1] = measured here: lipid fluorescence (Fed channel) AC50, cells fed with added oleic acid
# [2] = measured here: cell number channel AC50, cells fed with added oleic acid
Structure (SMILES),cell number change [%],AC50 [1],AC50 [2]
O=CN1CCN(C(=S)NC(=O)c2ccc(Cl)cc2)CC1,15.2,"29.1 µM [rising, single point]",
COc1ccccc1OCC(=O)Nc1cc2c(cc1C(=O)O)OCCCO2,14.1,"23.1 µM [rising, single point]",
CCCN1CCC(=O)N(CCOc2ccccc2)CC1,-2.69,"29.1 µM [rising, single point]",
O=C(O)c1ccccc1S(=O)(=O)NCC(O)COc1ccc(Br)cc1 (centres undefined),-7.27,"0.00461 µM [falling, full curve, poor fit]",
CCCc1[nH]nc2c1C(/C(C)=C/c1ccccc1)C(C#N)=C(N)O2 (centres undefined),-0.593,"0.116 µM [rising, full curve, poor fit]",
O=C(NCC1CCCO1)C1CCN(c2ccc(S(=O)(=O)N3CCCC3)cc2)CC1 (centres undefined),42.1,,"23.1 µM [rising, single point]"
COc1ccc(OC)c(CN2CCN(C(=O)[C@@H](NC(=O)c3cccc(C)c3)C(C)C)CC2)c1,4.81,"0.461 µM [rising, partial curve, poor fit]",
CCn1ncc(CN2CCN(C(=O)Nc3ccccc3C(=O)OC)CC2)c1C,-3.84,,
COc1ccc(CCC(=O)OCc2csc(CC(=O)Nc3ccccc3C)n2)cc1,-20.6,"0.0651 µM [falling, full curve, poor fit]",
O=C(Cc1ccccc1F)Nc1cc(S(=O)(=O)N2CCCC2)ccc1Cl,-14.2,"29.1 µM [falling, single point]",
CC1CN(c2nc3c(c(=O)n(Cc4ccc(Cl)cc4)c(=O)n3C)n2C)CC(C)O1 (centres undefined),-4.45,,
CCOc1ccc(S(=O)(=O)Nc2cccc(C(=O)N3CCN(C(C)=O)CC3)c2)cc1,15.2,"0.116 µM [falling, single point]",
COc1ccc(NC(=O)CCCN2C(=O)C(c3ccccc3)Oc3cccnc32)c(OC)c1 (centres undefined),1.65,,
O=C(COc1ccccc1F)NC1CC1,-16.8,"0.366 µM [falling, full curve]",
CCc1ccc(N2CC(C(=O)Nc3cccc(S(=O)(=O)N4CCCC4)c3)CC2=O)cc1 (centres undefined),4.17,"13 µM [rising, partial curve]",
O=C(O)CCc1ccc(-c2ccccc2)n1NC(=O)c1sc2ccccc2c1Cl,1.05,"0.0517 µM [rising, full curve, poor fit]",
O=C(O)Cn1cnc2ccccc2c1=O,,"29.1 µM [falling, single point]","6.51 µM [falling, single point]"
COc1ccc(CNC(=O)c2ccc(S(=O)(=O)N3CCCC3)cc2)cc1OC,13,,
O=C(CCC(=O)OCC(=O)c1ccc(F)cc1)NC1CCCCC1,-10.9,"23.1 µM [falling, partial curve]","2.31 µM [falling, partial curve, poor fit]"
C[C@H](NC(=O)c1nc[nH]c1C(=O)NCc1ccc(CNC(=O)OC(C)(C)C)cc1)c1ccccc1,-29.8,,

Structure (SMILES),cell number change [%],AC50 [1],AC50 [2]
CN(C)S(=O)(=O)c1cccc(NC(=O)c2ccc(OC(F)(F)F)cc2)c1,-28.4,"1.64 µM [falling, partial curve, poor fit]","4.11 µM [falling, full curve, poor fit]"
Cc1ccc(/C=C2\SC(=S)N(CCCC(=O)Nc3ccc(O)cc3)C2=O)cc1,-36.4,,"29.1 µM [falling, single point]"
Cc1cc2oc(C(=O)Nc3nonc3C)c(C)c2cc1C,3.12,,
CC1CCCCN1CCCNC(=O)c1ccc2c(=O)n(CCc3ccccc3)c(=O)[nH]c2c1 (centres undefined),-6.17,"0.731 µM [falling, single point]","0.231 µM [falling, full curve]"
COc1ccc(N2CCN(C(=O)c3ccc(CNS(=O)(=O)c4cccc(OC)c4)cc3)CC2)cc1,-17.6,"25.9 µM [falling, partial curve, poor fit]",
Cc1ccc(C(C(=O)NC(C)(C)C)N(Cc2ccco2)C(=O)Cn2nnc(-c3cccs3)n2)cc1 (centres undefined),-31.1,"16.4 µM [falling, partial curve]","14.6 µM [falling, single point]"
CCOC(=O)c1c(/N=C/N(C)C)sc2c1CCC2,14.3,"29.1 µM [rising, partial curve, poor fit]",
CCC1(C)CC2(CCCN(CCC(=O)c3ccccc3)C2)CCO1 (centres undefined),-28.5,"29.1 µM [falling, single point]",
CCOC(=O)c1c(NC(=O)CC2SC(=NC)N(C)C2=O)sc(C)c1C (centres undefined),,"1.64 µM [rising, partial curve]","0.731 µM [rising, full curve]"
Cc1ccc2nc(NC(=O)COC(=O)c3ccco3)sc2c1,1.01,"0.259 µM [rising, full curve]","1.16 µM [rising, full curve, poor fit]"
O=C(CN1C(=O)S/C(=C\c2ccc(Cl)cc2)C1=O)NNC(=O)c1ccccc1O,-33.2,"20.6 µM [falling, partial curve]","4.11 µM [falling, full curve, poor fit]"
CCN(CC)S(=O)(=O)c1ccc(OC(C)C)c(NC(=O)C2=COCCO2)c1,-19.5,"7.31 µM [falling, partial curve]",
CC(NC(=O)c1cc(COc2ccccc2)on1)c1nccs1 (centres undefined),,"5.8 µM [rising, single point]",
CN(C)CCCN(C(=O)c1ccc([N+](=O)[O-])s1)c1nc2cc3c(cc2s1)OCCO3,-18.5,,
Cc1ccccc1Nc1nn2c(=O)c3ccccc3nc2s1,-10.1,"0.731 µM [rising, single point]",
O=C(CN1CCC(C(=O)c2ccc3c(c2)OCCO3)CC1)NC1CCCC1,8.16,"6.51 µM [rising, partial curve, poor fit]",
O=C(NCc1ccc2c(c1)OCO2)c1ccc(NC(=O)C2CCCO2)cc1 (centres undefined),7.82,"6.51 µM [rising, partial curve, poor fit]",
Cc1ccc(-n2c(SCc3ccc(C#N)cc3)nnc2-c2ccccn2)cc1,29.4,"5.17 µM [rising, full curve]","0.731 µM [rising, full curve, poor fit]"
COc1cccc(Nc2nc(-c3ccccc3O)nc3ccccc23)c1,13.8,"0.58 µM [rising, full curve, poor fit]",
O=S(=O)(NC1CC1)c1ccc(Cl)cc1,0.293,"18.4 µM [rising, single point]",

# Gathered by group, the entries above with two or more sulfur atoms (3)
Structure (SMILES),cell number change [%],AC50 [1],AC50 [2]
Cc1ccc(/C=C2\SC(=S)N(CCCC(=O)Nc3ccc(O)cc3)C2=O)cc1,-36.4,,"29.1 µM [falling, single point]"
CCOC(=O)c1c(NC(=O)CC2SC(=NC)N(C)C2=O)sc(C)c1C (centres undefined),,"1.64 µM [rising, partial curve]","0.731 µM [rising, full curve]"
CN(C)CCCN(C(=O)c1ccc([N+](=O)[O-])s1)c1nc2cc3c(cc2s1)OCCO3,-18.5,,

# Further structures

Structure (SMILES),cell number change [%],AC50 [1],AC50 [2]
NC(=O)C1(N2CCCCC2)CCN(CC(=O)Nc2ccccc2-c2ccccc2)CC1,15.7,"13 µM [falling, partial curve]",
Clc1ccc(CSc2nnc(-c3ccncc3)s2)cc1,14.5,,"6.51 µM [rising, single point]"
COc1ccccc1CN(C)CC(=O)Nc1cccc(S(=O)(=O)N2CCCCC2)c1,,"32.6 µM [falling, partial curve, poor fit]",
Cc1cc(C)cc(NC(=S)Nc2ccc(Cl)c(Cl)c2)c1,-43.8,"17.8 µM [falling, single point]","35.5 µM [falling, single point]"
CC(C)(C)NC(=O)CN(CCN1CCOCC1)C(=O)CNS(=O)(=O)c1ccccc1,7.39,"29.1 µM [rising, single point]",
Cc1cc(C=O)c(C)n1-c1ccc(N2CCOCC2)c([N+](=O)[O-])c1,10.1,"0.291 µM [falling, partial curve, poor fit]",
COc1ccc(S(=O)(=O)NCC(c2ccc(F)cc2)N2CCOCC2)cc1Br (centres undefined),-8.42,,"1.3 µM [rising, partial curve]"
COc1cc(OC)cc(-c2cc3nc(C)c(CCC(=O)NCc4ccccc4)c(C)n3n2)c1,12.1,"0.146 µM [rising, full curve, poor fit]","0.146 µM [rising, full curve, poor fit]"
CCOC(=O)CC(=O)CSc1nc2sc(C)cc2c(=O)n1Cc1ccco1,-5.31,"6.51 µM [rising, partial curve]",
CCOC(=O)N1CCN(c2ccc([N+](=O)[O-])cc2F)CC1C (centres undefined),-38,,"0.291 µM [falling, full curve, poor fit]"
COCc1cc(C)nc2sc(C(=O)Nc3ccccc3OC)c(N)c12,-20.1,"29.1 µM [falling, single point]",
CC#CCCc1nc2ccccc2c(=O)n1N,11.4,"0.259 µM [rising, full curve, poor fit]",
Cc1ccc(C(=O)n2ncn(C)c2=S)cc1,,"29.1 µM [falling, partial curve]",
O=C(Cc1ncc(C(F)(F)F)cc1Cl)NCc1ccco1,27.2,,
O=[N+]([O-])c1ccc(S(=O)(=O)N2CCN(Cc3c[nH]c4ccccc34)CC2)cc1,30.3,"20.6 µM [rising, single point]","4.61 µM [rising, full curve, poor fit]"
COc1ccc(-c2csc(Nc3ccc(O)cc3)n2)cc1,-16.4,,
CCOC(=O)c1c(NC(=O)c2ccoc2C)sc2c1CCC2,-14.6,"0.411 µM [rising, full curve]",
CCOC(=O)Cn1c(=NC(=O)CN2C(=O)CCC2=O)sc2cc(S(N)(=O)=O)ccc21,5.79,"32.6 µM [falling, single point]",
